Test results from PubChem BioAssay AID651640 (Broad Institute, 2012).
Among all 350,000 compounds or so, about 6,000 (1.7%) were called active. This list was built around the results that the source calls inconclusive (neither active nor inactive); the mix of calls is not that of the screen. Cut-off read from the data, not from the text of the source: active = CPE inhibition above about 20% (passing the limit was not always enough); inconclusive = no clear call, values can overlap the other calls; tested in BHK-21 cells. More than one record can exist for a structure, and the calls need not agree.

Assay: protection of cells from dengue 2 killing – plate reader, single concentration, primary screen (AID 651640);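 note: 0% = median of neutral control wells and 100% = median of positive control wells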
Settings: DENV2-infected cells, cytopathic effect rescue, at 9.99 µM, active compounds read high

| Structure (SMILES) | CPE inhibition |
| --- | --- |
| COc1cc([N+](=O)[O-])ccc1NC(=O)Oc1ccc(NC(C)=O)cc1 | inconclusive: 36.4% |
| O=C(C1CCCCC1)N1C[C@H](O)[C@@H](n2cc(C3CC3)nn2)C[C@@H]1c1ccccc1 | active: 85.9% |
| C[C@H](CO)N1C[C@H](C)[C@@H](CN(C)S(=O)(=O)c2cccs2)OCCCC[C@H](C)Oc2ccc(NS(=O)(=O)c3ccc(F)cc3)cc2C1=O | inactive: -14.8% |
| N#Cc1cc2nc(O)c(O)nc2cc1[N+](=O)[O-] | inconclusive: 55.1% |
| CCOc1ccc(NC(=O)CN(C)C(=O)c2csc3c2CCCC3)cc1OCC | inconclusive: 39.3% |
| C[C@H]1CN([C@@H](C)CO)C(=O)c2cc(N(C)C)ccc2O[C@H]1CN(C)Cc1ccc(-c2ccccc2)cc1 | inactive: 1.32% |
| CC(C)(C)S(=O)N1Cc2cc(CO)cc(CCO)c2[C@@H]1CCO (some centres not stated) | inconclusive: 25.6% |
| CN1CCN(C(=O)C[C@H]2CC[C@H]3[C@@H](COc4ccc(NC(=O)C5CCC5)cc4C(=O)N3C)O2)CC1 | inconclusive: 26.4% |
| C[C@@H]1CCCCO[C@@H](CN(C)Cc2ccc(C(F)(F)F)cc2)[C@@H](C)CN([C@H](C)CO)C(=O)c2cc(NS(=O)(=O)c3cccs3)ccc2O1 | inactive: -2.58% |
| C[C@@H]1CN([C@H](C)CO)C(=O)c2cc(NC(=O)Nc3ccc(F)cc3)ccc2O[C@@H](C)CCCCO[C@H]1CN(C)C | active: 41.8% |
| CC(=O)Nc1cccc(NC(=O)CSc2nnc3ccc(-c4ccccn4)nn23)c1 | inconclusive: 41.8% |
| C[C@@H]1CN([C@H](C)CO)S(=O)(=O)c2ccc(C#Cc3ccc(F)cc3)cc2O[C@@H]1CN(C)C | inconclusive: 24.6% |
| N#Cc1cccc(-c2ccc3c(c2)[C@H]2[C@H](CCN2Cc2ccc4c(c2)OCO4)[C@@H](CO)N3)c1 | inconclusive: 26.8% |
| CC1CCN(CC(C)OC(=O)c2ccco2)CC1 (configuration not stated) | inconclusive: 43.8% |
| O=C(Cc1ccccc1)N1CC2(C1)[C@H](c1ccccc1)[C@@H](CO)N2S(=O)(=O)Cc1ccccc1 | active: 33.4% |
| CCCC(=O)N1CC2(CN(C(=O)Nc3cccc(F)c3)C2)c2c(n(C)c3cc(OC)ccc23)[C@@H]1CO | inconclusive: 20.5% |
| C[C@H](CO)N1C[C@H](C)[C@@H](CN(C)Cc2ccccc2)Oc2c(NS(=O)(=O)c3cn(C)cn3)cccc2C1=O | active: 29.7% |
| CNC(=O)C[C@@H]1CC[C@@H]2[C@H](COc3ccc(NC(=O)Nc4ccccc4F)cc3C(=O)N2C)O1 | inconclusive: 77% |
| CSc1cccc(NC(=O)C2CC(=O)N(Cc3ccccc3)C2)c1 (configuration not stated) | inconclusive: 58.3% |
| CCCNC(=O)Nc1ccc2c(c1)C(=O)N(C)C[C@@H](OC)[C@@H](C)CN(S(C)(=O)=O)[C@H](C)CO2 | inconclusive: 21.8% |
| Cc1noc(C)c1NC(=O)Nc1ccc2c(c1)C(=O)N([C@H](C)CO)C[C@@H](C)[C@@H](CN(C)CC1CCCCC1)OCCCC[C@H](C)O2 | inconclusive: 25.5% |
| CCCCN1CC(=O)N2[C@H](c3ccc(OC)cc3)[C@@H]3C(=O)N(CC)C(=O)[C@@H]3[C@]2(Cc2ccccc2)C1=O | inactive: -9.61% |
| CN(Cc1ccccc1Cl)C(=O)CNC(=O)C12CC3CC(CC(C3)C1)C2 | inconclusive: 55.9% |
| CN(CC1CCCN(CCc2cccc(C(F)(F)F)c2)C1)C(=O)c1ccc2nc[nH]c2c1 (configuration not stated) | inconclusive: 24.8% |

| Structure (SMILES) | CPE inhibition |
| --- | --- |
| Cc1cccc(C(C)C)c1NC(=O)COC(=O)CCN1C(=O)C2CC=CCC2C1=O (configuration not stated) | inconclusive: 26.3% |
| COc1cccc(C#Cc2ccc3c(c2)O[C@@H](CN(C)C)[C@@H](C)CN([C@H](C)CO)S3(=O)=O)c1 | inconclusive: 41.6% |
| CC(C)(C)OC(=O)N(CCc1ccccc1)Cc1cccc(OCc2cccc(NC(=O)C3CCC3)c2)c1 | inconclusive: 63% |
| O=S(=O)(c1ccccc1)N1CC[C@@H]2[C@H]1c1cc(C#CC3CCCCC3)ccc1N[C@@H]2CO | active: 28.4% |
| CN(CC(=O)Nc1ccc(F)cc1)C(=O)COC(=O)c1nc(Cl)ccc1Cl | active: 72.6% |
| Cc1ccnc(N2CCCC(C(=O)NC3CC3)C2)n1 (configuration not stated) | inconclusive: 38.2% |
| O=[N+]([O-])c1ccc(O)c(C=Nc2cccc3ccccc23)c1 | inactive: 10.2% |
| CC(C)(C)OC(=O)N1CCC(NC(=O)c2nc[nH]c2C(=O)NCc2ccccc2)CC1 | active: 34.3% |
| Cc1cccn2c(=O)c3cc(C(=O)NCC4CCCO4)c(=N)n(CC4CCCO4)c3nc12 (configuration not stated) | inconclusive: 38.8% |
| COc1cccc2oc3cc(C#Cc4ccccn4)ccc3c(=O)c12 | active: 47.7% |
| CCCCSc1nc2c(cnn2-c2ccc(C)c(C)c2)c(=O)[nH]1 | active: 50.4% |
| O=C(NC1CC1)c1ccc(CSCc2cccc(F)c2)o1 | inconclusive: 21% |
| COC(=O)C1NC(=O)N2C(C(=O)OC)C(C)(C)S[C@H]12 (some centres not stated) | inconclusive: 34.3% |
| O=C1CC[C@@H]2c3[nH]c4ccccc4c3CCN12 | inactive: 0.27% |
| C[C@H](CO)N1C[C@H](C)[C@H](CN(C)Cc2ccc3c(c2)OCO3)Oc2c(NC(=O)Nc3ccc(C(F)(F)F)cc3)cccc2C1=O | inconclusive: 23.1% |
| COc1ccc(OC)c(NC(=O)CSc2nnnn2C2CCCC2)c1 | inconclusive: 30.5% |
| C[C@H]1CN([C@@H](C)CO)C(=O)c2cc(-c3ccccc3F)cnc2O[C@@H]1CN(C)Cc1ccccc1 | inconclusive: 34.6% |
| CC(C)NC(=O)N(C)C[C@@H]1Oc2ncc(-c3ccccc3F)cc2C(=O)N([C@@H](C)CO)C[C@H]1C | active: 22.7% |
| C[C@@H]1CCCCO[C@H](CN(C)C(=O)Nc2ccc(C(F)(F)F)cc2)[C@H](C)CN([C@H](C)CO)C(=O)c2cc(NS(=O)(=O)c3ccc(F)cc3)ccc2O1 | active: 70.9% |
| COc1ccc(CN2CCCC(N3CCN(c4cccc(Cl)c4)CC3)C2)cc1OC (configuration not stated) | inconclusive: 38.8% |
| O=S(=O)(c1cccc(Cl)c1)N1CCC(c2nc3ccccc3[nH]2)CC1 | inconclusive: 24.7% |
| O=C(c1ccccc1)N1CCC(=O)N(C(CO)Cc2ccccc2)CC1 (configuration not stated) | inconclusive: 32.6% |
| CO[C@H]1CN(C)C(=O)c2cc(NC(=O)Nc3ccccc3)ccc2OC[C@H](C)N(C(C)=O)C[C@H]1C | active: 65.5% |
| CC(C)Cn1c(=S)[nH]c2cc(C(=O)NCc3ccccc3F)ccc2c1=O | active: 62.1% |

A few values from the results shown.
Under CPE inhibition, O=C(NC1CC1)c1ccc(CSCc2cccc(F)c2)o1 is listed with inconclusive: 21%
Under CPE inhibition, COc1ccc(CN2CCCC(N3CCN(c4cccc(Cl)c4)CC3)C2)cc1OC (configuration not stated) is listed with inconclusive: 38.8%
Under CPE inhibition, C[C@H](CO)N1C[C@H](C)[C@H](CN(C)Cc2ccc3c(c2)OCO3)Oc2c(NC(=O)Nc3ccc(C(F)(F)F)cc3)cccc2C1=O is listed with inconclusive: 23.1%
Under CPE inhibition, CC(C)Cn1c(=S)[nH]c2cc(C(=O)NCc3ccccc3F)ccc2c1=O is listed with active: 62.1%
Under CPE inhibition, Cc1ccnc(N2CCCC(C(=O)NC3CC3)C2)n1 (configuration not stated) is listed with inconclusive: 38.2%

Next part.

| Structure (SMILES) | CPE inhibition |
| --- | --- |
| Cc1ccccc1NC(=O)Nc1nc(C2CCC(=O)N2)cs1 (configuration not stated) | inconclusive: 30.5% |
| CCN1[C@@H]2Cn3c(ccc(C4=CCCCC4)c3=O)[C@H]1[C@@H](C(=O)N1CCCCC1)[C@@H]2CO | inconclusive: 32.3% |
| CCCC#Cc1cnc2c(c1)C(=O)N([C@@H](C)CO)C[C@H](C)[C@H](CN(C)Cc1ccc3c(c1)OCO3)O2 | inactive: 9.61% |
| Cc1cc(C(=O)NCC2CCCO2)sc1C (configuration not stated) | inconclusive: 26.7% |
| COC(=O)c1ccc2nc(-c3ccco3)c(Cc3ccccc3C(F)(F)F)n2c1 | inconclusive: 51.2% |
| CC(=O)N1[C@H](C(=O)N(C)C)[C@@H](CO)[C@@H]2Cn3c(ccc(-c4ccccc4F)c3=O)[C@@H]21 | active: 34.4% |
| C[C@H]1CN([C@@H](C)CO)C(=O)c2cc(NC(=O)Nc3ccccc3)ccc2O[C@@H]1CN(C)C | inconclusive: 39.7% |
| CC1CCCCC12NC(=O)N(CC(=O)Nc1ccc(N3CCOCC3)cc1)C2=O (configuration not stated) | inconclusive: 55.3% |
| COc1ccc(-c2cc3cc4c(cc3cn2)OCO4)cc1 | inconclusive: 30.2% |
| Cc1ccc(-c2ccccc2[C@@H]2[C@H](C#N)N(C(=O)Cc3cccnc3)[C@H]2CO)cc1 | active: 25.6% |
| O=C(N[C@H]1CC[C@H](CCNS(=O)(=O)c2ccc(Cl)cc2)O[C@@H]1CO)c1ccccn1 | inconclusive: 38.1% |
| CC(C)NC(=O)Nc1ccc2c(c1)C(=O)N([C@@H](C)CO)C[C@H](C)[C@H](CN(C)C(=O)Nc1cccc3ccccc13)O2 | inactive: 0.085% |
| COCC(=O)Nc1ccc2c(c1)OC[C@@H](C)N(C(=O)c1ccncc1)C[C@@H](C)[C@H](OC)CN(C)C2=O | active: 32.4% |
| O=C(C1CC1)N1CC(=O)N2[C@@H](CO)[C@@H](c3ccc(Br)cc3)[C@@H]2C1 | inconclusive: 23.8% |
| COc1ccc(S(=O)(=O)N(C)C[C@@H]2Oc3ccc(NC(=O)C4CC4)cc3C(=O)N([C@H](C)CO)C[C@H]2C)cc1 | inconclusive: 60.4% |
| CC(C)C[C@H]1CN([C@@H](CC(C)C)CN2CCCC2CN2C(=S)NC[C@@H]2Cc2ccc(O)cc2)C(=S)N1CCc1ccccc1 (some centres not stated) | inactive: 3.48% |
| O=C(CSC1CCc2ccccc21)NNC(=O)Nc1ccc(Cl)cc1 (configuration not stated) | inconclusive: 29.6% |
| C[C@@H](CN1C2=NC[C@H](Cc3ccccc3)N2C[C@H]1Cc1ccc(O)cc1)NC(=O)CCC1CCCCC1 | active: 40.8% |
| COCC(=O)NC[C@@H]1[C@@H](c2ccc(-c3ccccc3)cc2)[C@@H](CO)N1C(C)=O | inactive: -11.5% |
| COc1ccc(CCC2(C)NC(=O)N(C(C)C(=O)N3c4ccccc4CC3C)C2=O)cc1 (configuration not stated) | inactive: -0.553% |
| O=C(CCN1CCCCC1)NCC[C@H]1CC[C@H](NC(=O)C2CCC2)[C@@H](CO)O1 | active: 23% |
| CC(=O)Nc1ccc2c(c1)N(S(=O)(=O)c1cccs1)CCC2 | inconclusive: 28.2% |
| O=C1c2ccccc2CN1CCSC(=S)N1CCOCC1 | active: 21% |
| COc1cccc(C#Cc2ccc3c(c2)[C@@H]2[C@@H](CCN2C(=O)c2ccc(F)cc2)[C@@H](CO)N3)c1 | active: 26% |
